Assay results published in PMC11153576.
No constants are given. Whether binding was seen depends on the method and setting. For some assays here: Binding seen in cells or lysates may run through a third protein. Some binding calls cover weakened binding; strength is not graded here.

Amino acid sequences for entries named in this document (tags omitted).
UniProt P45983: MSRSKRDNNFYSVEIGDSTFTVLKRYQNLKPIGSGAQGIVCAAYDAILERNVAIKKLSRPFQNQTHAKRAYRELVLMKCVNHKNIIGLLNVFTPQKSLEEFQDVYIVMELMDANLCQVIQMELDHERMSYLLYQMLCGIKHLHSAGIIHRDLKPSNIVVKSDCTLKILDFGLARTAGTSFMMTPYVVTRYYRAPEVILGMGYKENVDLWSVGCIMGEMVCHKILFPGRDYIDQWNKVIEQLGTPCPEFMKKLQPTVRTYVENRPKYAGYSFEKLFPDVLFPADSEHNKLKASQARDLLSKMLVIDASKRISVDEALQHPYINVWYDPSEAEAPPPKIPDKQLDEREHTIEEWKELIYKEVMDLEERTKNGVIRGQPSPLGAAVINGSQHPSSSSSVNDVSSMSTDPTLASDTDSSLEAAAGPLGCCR

Columns and labels:
Forkhead Box Q1 (FOXQ1) = molecular target: T1, Forkhead Box Q1 (FOXQ1) (UniProt Q9C009); experiment: co-IP; cell lysates (50 mM Tris-HCl pH 7.5, 0.5% NP-40, 150 mM NaCl, 2 mM EDTA), antibody on protein A or G agarose, 4 °C, western blot; PLC/PRF/5 and SK-Hep1 cells also treated with DMSO or sorafenib (10 μM) for 24 h
T1 sequence: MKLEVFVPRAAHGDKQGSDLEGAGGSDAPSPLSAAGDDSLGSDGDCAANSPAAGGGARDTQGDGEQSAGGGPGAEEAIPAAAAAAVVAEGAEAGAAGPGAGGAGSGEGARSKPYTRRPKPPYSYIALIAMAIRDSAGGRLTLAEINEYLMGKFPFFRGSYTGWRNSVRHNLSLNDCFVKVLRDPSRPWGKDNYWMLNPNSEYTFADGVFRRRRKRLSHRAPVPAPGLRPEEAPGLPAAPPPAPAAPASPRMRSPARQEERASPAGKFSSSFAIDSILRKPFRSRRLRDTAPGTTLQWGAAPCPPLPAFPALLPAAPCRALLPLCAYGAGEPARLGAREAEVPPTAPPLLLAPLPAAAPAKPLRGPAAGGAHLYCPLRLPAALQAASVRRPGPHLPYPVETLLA

[1] = molecular target: T2, Forkhead Box Q1 (FOXQ1), Q9C009; experiment: native gel or EMSA; native polyacrylamide gel electrophoresis (native-PAGE) of FOXQ1 after sorafenib treatment of cells; methods not shown; details: remark: other sources report otherwise
T2 chain: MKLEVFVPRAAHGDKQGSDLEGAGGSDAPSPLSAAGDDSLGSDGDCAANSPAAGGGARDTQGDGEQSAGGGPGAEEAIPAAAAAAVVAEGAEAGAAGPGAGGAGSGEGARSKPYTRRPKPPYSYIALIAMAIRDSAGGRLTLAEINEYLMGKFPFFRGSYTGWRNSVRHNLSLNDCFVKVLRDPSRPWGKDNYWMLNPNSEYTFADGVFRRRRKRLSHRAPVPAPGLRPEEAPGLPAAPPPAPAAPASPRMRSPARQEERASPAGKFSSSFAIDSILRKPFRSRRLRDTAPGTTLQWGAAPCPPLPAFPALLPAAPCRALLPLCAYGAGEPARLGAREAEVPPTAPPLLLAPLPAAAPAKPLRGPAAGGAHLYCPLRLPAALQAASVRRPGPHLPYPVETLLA

## JNK1 (from UniProt P45983 1-427) (enzyme)
Forkhead Box Q1 (FOXQ1)
  binding: binds

B1: Forkhead Box Q1 (FOXQ1), Q9C009 1-403 (protein)
chain: MKLEVFVPRAAHGDKQGSDLEGAGGSDAPSPLSAAGDDSLGSDGDCAANSPAAGGGARDTQGDGEQSAGGGPGAEEAIPAAAAAAVVAEGAEAGAAGPGAGGAGSGEGARSKPYTRRPKPPYSYIALIAMAIRDSAGGRLTLAEINEYLMGKFPFFRGSYTGWRNSVRHNLSLNDCFVKVLRDPSRPWGKDNYWMLNPNSEYTFADGVFRRRRKRLSHRAPVPAPGLRPEEAPGLPAAPPPAPAAPASPRMRSPARQEERASPAGKFSSSFAIDSILRKPFRSRRLRDTAPGTTLQWGAAPCPPLPAFPALLPAAPCRALLPLCAYGAGEPARLGAREAEVPPTAPPLLLAPLPAAAPAKPLRGPAAGGAHLYCPLRLPAALQAASVRRPGPHLPYPVETLLA
[1]
  binding: binds
